PubChem BioAssay AID1053208, Peter MacCallum Cancer Centre, 2014
This is a random part of about 17,000 reagents tested. In the full data, 788 (4.7%) were called active. 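Calls rest on z-score classes alone; an extra cut-off of viability at most 70% of control was not applied to them.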 Unmarked entries are inactive. Reagents against one gene are numbered here. Not all columns of the deposit are shown.

Assay: 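Genes whose silencing cuts survival of bone tumour cells only with doxorubicin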 (primary screen)
Cells: mouse osteosarcoma cells, early-passage culture from an engineered mouse model of fibroblastic bone tumour
Knock-down reagent: siRNA pool against mouse genes, 40 nM
Duration: about 120 h (48 h before drug, then 72 h with drug)
Challenge: doxorubicin 100 nM for 72 h, roughly 30-40% inhibitory dose
Detection: 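Luminescent ATP signal taken as viability with or without 100 nM doxorubicin for 72 h; mean of two wells set against non-targeting siRNA and turned into robust z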
Scale: viability z-score with doxorubicin: higher = more viable cells under doxorubicin; viability z-score without drug: higher = more viable cells with knock-down alone
Rule for the call: 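Called active if knock-down leaves viability unchanged without drug (z within -2 to 2) but lowers it with doxorubicin (z at or under -2)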

Target gene | reagent | combined z-score class | viability z-score with doxorubicin | viability z-score without drug
Vmn2r10 (GeneID 22307) | 1 | low cell count with doxorubicin only (active) | -2.59 | -1.01
Vmn1r10 (GeneID 113858) | 1 | no change with or without drug | 0.9 | 0.84
Sf3b3 (GeneID 101943) | 1 | low cell count with and without drug | -3.82 | -2.87
Slc38a3 (GeneID 76257) | 1 | no change with or without drug | -1.12 | 0.17
Galnt10 (GeneID 171212) | 1 | no change with or without drug | 1.46 | 1.85
Dexi (GeneID 58239) | 1 | no change with or without drug | 0.67 | 0.84
Tbc1d22a (GeneID 223754) | 1 | no change with or without drug | 1.01 | -0.17
Plcxd3 (GeneID 239318) | 1 | low cell count with doxorubicin only (active) | -2.7 | -0.17
U2surp (GeneID 67958) | 1 | no change with or without drug | 1.12 | 0.17
Usp54 (GeneID 78787) | 1 | no change with or without drug | 1.46 | -0.51
Usp54 (GeneID 78787) | 2 | no change with or without drug | -0.67 | 0.84
Mcfd2 (GeneID 193813) | 1 | low cell count without drug only | -0.22 | -2.19
Slc61a1 (GeneID 106073) | 1 | no change with or without drug | 0.56 | 1.85
Cpne1 (GeneID 266692) | 1 | no change with or without drug | -0.67 | -0.84
Rassf4 (GeneID 213391) | 1 | high cell count without drug only | 0.9 | 2.53
Sema6c (GeneID 20360) | 1 | no change with or without drug | -0.9 | -0.17
Spata6l (GeneID 381218) | 1 | no change with or without drug | -1.12 | -0.17
Pcdhga12 (GeneID 93724) | 1 | low cell count with doxorubicin only (active) | -2.02 | -0.84
Myh14 (GeneID 71960) | 1 | no change with or without drug | -0.79 | 1.18
Slc15a5 (GeneID 277898) | 1 | no change with or without drug | -0.9 | -0.51
Zp3r (GeneID 22789) | 1 | no change with or without drug | -0.45 | -1.85
Or2y3 (GeneID 258867) | 1 | no change with or without drug | -0.45 | -1.52
Tmbim6 (GeneID 110213) | 1 | no change with or without drug | -0.45 | -0.51
Ash1l (GeneID 192195) | 1 | no change with or without drug | -0.22 | -1.35
Or51h1 (GeneID 259107) | 1 | low cell count with doxorubicin only (active) | -2.7 | -0.84
Syt12 (GeneID 171180) | 1 | no change with or without drug | -1.35 | 0.17
Bhlhe22 (GeneID 59058) | 1 | no change with or without drug | 0.22 | -0.17
Kank2 (GeneID 235041) | 1 | no change with or without drug | -0.67 | 1.18
Atxn1 (GeneID 20238) | 1 | no change with or without drug | 0 | 0.34
Icam5 (GeneID 15898) | 1 | no change with or without drug | 0 | -0.17
Gstm6 (GeneID 14867) | 1 | no change with or without drug | -1.69 | -0.84
Trip10 (GeneID 106628) | 1 | no change with or without drug | -0.79 | 0.17
Acat3 (GeneID 224530) | 1 | no change with or without drug | 0.67 | -0.84
Ttc3 (GeneID 22129) | 1 | no change with or without drug | -1.35 | 0.34
Bloc1s6 (GeneID 18457) | 1 | no change with or without drug | 1.35 | 0.34
C1qb (GeneID 12260) | 1 | no change with or without drug | 0 | -0.84
Nck1 (GeneID 17973) | 1 | no change with or without drug | 0.67 | 1.01
Gzmg (GeneID 14944) | 1 | no change with or without drug | 0.45 | 0.17
Hoxb4 (GeneID 15412) | 1 | no change with or without drug | 0.11 | 1.52
Ugt1a1 (GeneID 394436) | 1 | no change with or without drug | -0.67 | -0.34
Angpt4 (GeneID 11602) | 1 | no change with or without drug | -1.12 | -1.85
Tmem134 (GeneID 66990) | 1 | no change with or without drug | 1.91 | -0.51
Timmdc1 (GeneID 76916) | 1 | no change with or without drug | 0.9 | 1.85
Saxo6 (GeneID 17245) | 1 | no change with or without drug | -0.45 | 1.18
Tcf3 (GeneID 21423) | 1 | no change with or without drug | -1.12 | -1.52
Cpb2 (GeneID 56373) | 1 | no change with or without drug | 0.67 | 0.17
Llgl2 (GeneID 217325) | 1 | no change with or without drug | -1.35 | -0.67
Col6a1 (GeneID 12833) | 1 | high cell count without drug only | -1.12 | 2.36
Tm9sf3 (GeneID 107358) | 1 | no change with or without drug | 0.11 | 0.51
Capn2 (GeneID 12334) | 1 | no change with or without drug | 1.35 | 0.17
Zfp526 (GeneID 210172) | 1 | high cell count without drug only | 1.12 | 2.53
Tia1 (GeneID 21841) | 1 | no change with or without drug | -1.12 | -0.17
Vegfc (GeneID 22341) | 1 | no change with or without drug | 0.22 | 0.84
Ubtf (GeneID 21429) | 1 | no change with or without drug | 0.67 | -0.17
Comt (GeneID 12846) | 1 | no change with or without drug | -0.11 | -0.17
Grik1 (GeneID 14805) | 1 | no change with or without drug | 0 | -0.84
H2bc1 (GeneID 319177) | 1 | no change with or without drug | 0.22 | -0.17
Rpp25 (GeneID 102614) | 1 | no change with or without drug | 0.9 | -0.84
Il13ra1 (GeneID 16164) | 1 | high cell count with doxorubicin only | 2.47 | 1.85
Slc6a7 (GeneID 240332) | 1 | no change with or without drug | -0.22 | 0.51
Gcsam (GeneID 14525) | 1 | no change with or without drug | -0.45 | 1.01
Ccdc178 (GeneID 70950) | 1 | low cell count with doxorubicin only (active) | -3.37 | -1.52
A530021J07Rik (GeneID 330578) | 1 | low cell count with doxorubicin only (active) | -2.7 | -1.01

Entries listed so far whose gene name starts with V or v (3):
Target gene | reagent | combined z-score class | viability z-score with doxorubicin | viability z-score without drug
Vmn2r10 (GeneID 22307) | 1 | low cell count with doxorubicin only (active) | -2.59 | -1.01
Vmn1r10 (GeneID 113858) | 1 | no change with or without drug | 0.9 | 0.84
Vegfc (GeneID 22341) | 1 | no change with or without drug | 0.22 | 0.84
